# Measured values from the supplement of paper PMC8728848.
# The list shows a part of the results.
# B1: PX9961KLbvu-535-38-535 (Bacteroides vulgatus) (protein)
# chain: DKAYTDAESYTKGLHKIYSVWALSGQDGSSSSDISGLDAGNTALLRCWWTLQEQPTDEMKNAWNDAWCTEVNYMTWTTNKVEPIEGVYQRCMYIVALVNEFLKNIPNAPESIDKESYIAQARFNRAFAYYVLMDMFALPPFITEKNYSIEPAPLSREDLFNWIEAELNEIKPNLPSPRSEYGVADQAVASALLARMYLNAEIYTGKARYTECINACNEVIKAGYQLADNYADLFKADNGENPDTKKEIIYPIIFDGDKTQSWGMAAIIIGARGAEDKDVLLAHSGVDQGWAGFRATSNLVHLFDFQNDEEPKASEIQDKRGIFYDKGRSIDITSSVSGTFETEGWSVFKFSNLNSNGQPGKNTLWVDTDFPMFRLGDIYLMYAEAVARGGEGSKASAVEYINALRKRAYGDDKHNISENWLEENNFRNLLDERGRELYWEGIRRTDLVRFDLLTSGSYTWDFKGGINTGVGVNKRYNVYPIPVTDLTVNGNLQQNEGY
# What was measured:
# Assay in all cases: glycan array binding signal (z-score within array); higher = stronger binding
# Conditions in all cases: glycan notation: IUPAC condensed, linker removed
# [1] = molecular target: Neu5Ac(a2-3)Gal(b1-4)GlcNAc(b1-3)Gal(b1-4)GlcNAc(b1-3)Gal(b1-4)GlcNAc
# In short: (§1)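 Columns mapping to the same glycan were averaged after glycan names were converted to IUPAC-condensed notation. The data come from 3228 arrays in the Consortium for Functional Glycomics database, limited to those with an available protein sequence. Binding is reported as a within-array Z-score averaged across arrays of one protein sequence and across linkers.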
# [2] = molecular target: Neu5Ac(a2-3)Gal(b1-4)GlcNAc(b1-3)Gal(b1-4)GlcNAc(b1-3)Gal(b1-4)GlcNAc(b1-2)Man(a1-3)[Neu5Ac(a2-3)Gal(b1-4)GlcNAc(b1-3)Gal(b1-4)GlcNAc(b1-3)Gal(b1-4)GlcNAc(b1-2)Man(a1-6)]GalNAc
# In short: as §1
# [3] = molecular target: Neu5Ac(a2-3)Gal(b1-4)GlcNAc(b1-3)Gal(b1-4)GlcNAc(b1-3)GalNAc
# In short: as §1
# [4] = molecular target: Neu5Ac(a2-3)Gal(b1-4)GlcNAc(b1-3)Gal(b1-4)GlcNAc(b1-3)[Neu5Ac(a2-3)Gal(b1-4)GlcNAc(b1-3)Gal(b1-4)GlcNAc(b1-6)]GalNAc
# In short: as §1
# [5] = molecular target: Neu5Ac(a2-3)Gal(b1-4)GlcNAc(b1-3)Gal(b1-4)GlcNAc(b1-6)[Gal(b1-3)]GalNAc
# In short: as §1
# [6] = molecular target: Neu5Ac(a2-3)Gal(b1-4)GlcNAc(b1-3)Gal(b1-4)[Fuc(a1-3)]GlcNAc
# In short: as §1
# [7] = molecular target: Neu5Ac(a2-3)Gal(b1-4)GlcNAc(b1-3)GalNAc
# In short: as §1
# [8] = molecular target: Neu5Ac(a2-3)Gal(b1-4)GlcNAc(b1-3)[Neu5Ac(a2-3)Gal(b1-4)GlcNAc(b1-6)]GalNAc
# In short: as §1
# [9] = molecular target: Neu5Ac(a2-3)Gal(b1-4)GlcNAc(b1-6)GalNAc
# In short: as §1
# [10] = molecular target: Neu5Ac(a2-3)Gal(b1-4)GlcNAc(b1-6)[Gal(b1-3)]GalNAc
# In short: as §1
# [11] = molecular target: Neu5Ac(a2-3)Gal(b1-4)GlcNAc(b1-6)[Neu5Ac(a2-3)Gal(b1-3)]GalNAc
# In short: as §1
# [12] = molecular target: Neu5Ac(a2-3)Gal(b1-4)GlcNAc6S
# In short: as §1
# [13] = molecular target: Neu5Ac(a2-3)Gal(b1-4)[Fuc(a1-3)]GlcNAc
# In short: as §1
# [14] = molecular target: Neu5Ac(a2-3)Gal(b1-4)[Fuc(a1-3)]GlcNAc(b1-2)Man
# In short: as §1
# [15] = molecular target: Neu5Ac(a2-3)Gal(b1-4)[Fuc(a1-3)]GlcNAc(b1-3)Gal
# In short: as §1
# [16] = molecular target: Neu5Ac(a2-3)Gal(b1-4)[Fuc(a1-3)]GlcNAc(b1-3)Gal(b1-4)GlcNAc
# In short: as §1
# [17] = molecular target: Neu5Ac(a2-3)Gal(b1-4)[Fuc(a1-3)]GlcNAc(b1-3)Gal(b1-4)[Fuc(a1-3)]GlcNAc(b1-3)Gal(b1-4)[Fuc(a1-3)]GlcNAc
# In short: as §1
# [18] = molecular target: Neu5Ac(a2-3)Gal(b1-4)[Fuc(a1-3)]GlcNAc(b1-3)GalNAc
# In short: as §1
# [19] = molecular target: Neu5Ac(a2-3)Gal(b1-4)[Fuc(a1-3)]GlcNAc(b1-6)[Gal(b1-3)]GalNAc
# In short: as §1
# [20] = molecular target: Neu5Ac(a2-3)Gal(b1-4)[Fuc(a1-3)]GlcNAc(b1-6)[Neu5Ac(a2-3)Gal(b1-3)]GalNAc
# In short: as §1
# [21] = molecular target: Neu5Ac(a2-3)Gal(b1-4)[Fuc(a1-3)]GlcNAc6S
# In short: as §1
# [22] = molecular target: Neu5Ac(a2-3)Gal6S(b1-4)GlcNAc
# In short: as §1
# [23] = molecular target: Neu5Ac(a2-3)Gal6S(b1-4)[Fuc(a1-3)]GlcNAc
# In short: as §1
# [24] = molecular target: Neu5Ac(a2-3)GalNAc
# In short: as §1
# [25] = molecular target: Neu5Ac(a2-3)GalNAc(b1-4)GlcNAc
# In short: as §1
# [26] = molecular target: Neu5Ac(a2-3)[GalNAc(b1-4)]Gal(b1-4)Glc
# In short: as §1
# [27] = molecular target: Neu5Ac(a2-3)[GalNAc(b1-4)]Gal(b1-4)GlcNAc
# In short: as §1
# [28] = molecular target: Neu5Ac(a2-3)[GalNAc(b1-4)]Gal(b1-4)GlcNAc(b1-3)GalNAc
# In short: as §1
# [29] = molecular target: Neu5Ac(a2-3)[Neu5Ac(a2-6)]GalNAc
# In short: as §1
# [30] = molecular target: Neu5Ac(a2-6)Gal
# In short: as §1
# [31] = molecular target: Neu5Ac(a2-6)Gal(b1-3)GlcNAc(b1-3)[Gal(b1-4)GlcNAc(b1-6)]Gal(b1-4)Glc
# In short: as §1
# [32] = molecular target: Neu5Ac(a2-6)Gal(b1-4)Glc
# In short: as §1
# [33] = molecular target: Neu5Ac(a2-6)Gal(b1-4)GlcNAc
# In short: as §1
# [34] = molecular target: Neu5Ac(a2-6)Gal(b1-4)GlcNAc(b1-2)Man
# In short: as §1
# [35] = molecular target: Neu5Ac(a2-6)Gal(b1-4)GlcNAc(b1-2)Man(a1-3)Man(b1-4)GlcNAc(b1-4)GlcNAc
# In short: as §1
# [36] = molecular target: Neu5Ac(a2-6)Gal(b1-4)GlcNAc(b1-2)Man(a1-3)[Gal(b1-4)GlcNAc(b1-2)Man(a1-6)]Man(b1-4)GlcNAc(b1-4)GlcNAc
# In short: as §1
# [37] = molecular target: Neu5Ac(a2-6)Gal(b1-4)GlcNAc(b1-2)Man(a1-3)[GlcNAc(b1-2)Man(a1-6)]Man(b1-4)GlcNAc(b1-4)GlcNAc
# In short: as §1
# [38] = molecular target: Neu5Ac(a2-6)Gal(b1-4)GlcNAc(b1-2)Man(a1-3)[GlcNAc(b1-4)][Neu5Ac(a2-6)Gal(b1-4)GlcNAc(b1-2)Man(a1-6)]Man(b1-4)GlcNAc(b1-4)GlcNAc
# In short: as §1
binder,measurement,setting,value
B1,glycan array binding signal (z-score),[1],-0.106
same,glycan array binding signal (z-score),[2],1.01
same,glycan array binding signal (z-score),[3],-0.387
same,glycan array binding signal (z-score),[4],0.429
same,glycan array binding signal (z-score),[5],-0.413
same,glycan array binding signal (z-score),[6],-0.754
same,glycan array binding signal (z-score),[7],-0.307
same,glycan array binding signal (z-score),[8],-1.09
same,glycan array binding signal (z-score),[9],-0.266
same,glycan array binding signal (z-score),[10],0.057
same,glycan array binding signal (z-score),[11],-0.02
same,glycan array binding signal (z-score),[12],-0.381
same,glycan array binding signal (z-score),[13],-0.6
same,glycan array binding signal (z-score),[14],-0.352
same,glycan array binding signal (z-score),[15],-0.615
same,glycan array binding signal (z-score),[16],0.02
same,glycan array binding signal (z-score),[17],0.023
same,glycan array binding signal (z-score),[18],0.19
same,glycan array binding signal (z-score),[19],0.27
same,glycan array binding signal (z-score),[20],1.17
same,glycan array binding signal (z-score),[21],-0.73
same,glycan array binding signal (z-score),[22],-0.013
same,glycan array binding signal (z-score),[23],0.772
same,glycan array binding signal (z-score),[24],-0.201
same,glycan array binding signal (z-score),[25],-0.32
same,glycan array binding signal (z-score),[26],-0.237
same,glycan array binding signal (z-score),[27],-0.183
same,glycan array binding signal (z-score),[28],-0.004
same,glycan array binding signal (z-score),[29],0.241
same,glycan array binding signal (z-score),[30],0.181
same,glycan array binding signal (z-score),[31],0.302
same,glycan array binding signal (z-score),[32],-0.86
same,glycan array binding signal (z-score),[33],-0.009
same,glycan array binding signal (z-score),[34],0.331
same,glycan array binding signal (z-score),[35],0.228
same,glycan array binding signal (z-score),[36],-0.384
same,glycan array binding signal (z-score),[37],-0.663
same,glycan array binding signal (z-score),[38],0.55

# Two entries drawn at random from the list so far, as already listed:
binder,measurement,setting,value
B1,glycan array binding signal (z-score),[17],0.023
same,glycan array binding signal (z-score),[28],-0.004
